Assay results taken from the supplement of paper PMC10849652.
The other results are listed elsewhere or left out. Residues, ends and D or L forms follow the SMILES beside them. *: point of attachment. Cbz = O=C(OCc1ccccc1)*

Chains of the proteins cited; added tags and fusions are not shown. Lines headed by an entry give the natural chain unless they say otherwise; changes in a name come on top.
UniProt Q8NC54: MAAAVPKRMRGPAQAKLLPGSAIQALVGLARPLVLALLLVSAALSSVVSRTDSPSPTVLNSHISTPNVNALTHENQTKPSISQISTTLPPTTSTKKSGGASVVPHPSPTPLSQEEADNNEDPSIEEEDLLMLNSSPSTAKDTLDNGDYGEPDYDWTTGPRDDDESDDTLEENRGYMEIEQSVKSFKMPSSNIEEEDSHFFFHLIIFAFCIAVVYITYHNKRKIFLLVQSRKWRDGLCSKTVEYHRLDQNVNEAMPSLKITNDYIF
UniProt P17275: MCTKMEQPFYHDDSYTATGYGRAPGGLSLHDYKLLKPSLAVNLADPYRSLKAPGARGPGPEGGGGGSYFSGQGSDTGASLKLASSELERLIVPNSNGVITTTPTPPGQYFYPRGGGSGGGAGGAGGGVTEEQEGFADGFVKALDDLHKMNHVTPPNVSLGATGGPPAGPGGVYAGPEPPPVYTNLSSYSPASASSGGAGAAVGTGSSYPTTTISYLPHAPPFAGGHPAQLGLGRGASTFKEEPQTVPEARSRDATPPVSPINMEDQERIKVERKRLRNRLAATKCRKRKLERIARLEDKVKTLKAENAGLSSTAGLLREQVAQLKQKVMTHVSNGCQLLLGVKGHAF
UniProt P33947: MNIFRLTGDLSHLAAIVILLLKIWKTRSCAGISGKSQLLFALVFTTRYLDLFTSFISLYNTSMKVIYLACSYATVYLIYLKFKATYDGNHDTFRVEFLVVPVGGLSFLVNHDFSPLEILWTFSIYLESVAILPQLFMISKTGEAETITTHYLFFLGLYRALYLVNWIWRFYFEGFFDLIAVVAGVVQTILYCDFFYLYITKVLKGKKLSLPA
UniProt O00629, whole entry, looked up: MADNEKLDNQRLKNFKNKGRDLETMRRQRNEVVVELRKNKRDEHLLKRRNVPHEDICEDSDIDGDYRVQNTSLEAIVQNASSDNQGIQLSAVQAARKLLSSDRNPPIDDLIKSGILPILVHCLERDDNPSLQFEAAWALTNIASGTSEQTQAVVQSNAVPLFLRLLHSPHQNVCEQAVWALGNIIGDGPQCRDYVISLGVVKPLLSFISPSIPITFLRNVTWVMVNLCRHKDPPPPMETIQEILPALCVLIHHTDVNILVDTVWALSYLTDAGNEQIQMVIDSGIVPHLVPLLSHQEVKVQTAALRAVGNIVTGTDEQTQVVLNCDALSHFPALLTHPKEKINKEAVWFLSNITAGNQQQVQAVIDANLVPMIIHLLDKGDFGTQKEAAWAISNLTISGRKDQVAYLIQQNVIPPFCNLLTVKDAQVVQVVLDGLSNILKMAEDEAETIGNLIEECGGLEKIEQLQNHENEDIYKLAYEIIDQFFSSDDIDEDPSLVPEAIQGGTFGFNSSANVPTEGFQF
UniProt Q96EK5: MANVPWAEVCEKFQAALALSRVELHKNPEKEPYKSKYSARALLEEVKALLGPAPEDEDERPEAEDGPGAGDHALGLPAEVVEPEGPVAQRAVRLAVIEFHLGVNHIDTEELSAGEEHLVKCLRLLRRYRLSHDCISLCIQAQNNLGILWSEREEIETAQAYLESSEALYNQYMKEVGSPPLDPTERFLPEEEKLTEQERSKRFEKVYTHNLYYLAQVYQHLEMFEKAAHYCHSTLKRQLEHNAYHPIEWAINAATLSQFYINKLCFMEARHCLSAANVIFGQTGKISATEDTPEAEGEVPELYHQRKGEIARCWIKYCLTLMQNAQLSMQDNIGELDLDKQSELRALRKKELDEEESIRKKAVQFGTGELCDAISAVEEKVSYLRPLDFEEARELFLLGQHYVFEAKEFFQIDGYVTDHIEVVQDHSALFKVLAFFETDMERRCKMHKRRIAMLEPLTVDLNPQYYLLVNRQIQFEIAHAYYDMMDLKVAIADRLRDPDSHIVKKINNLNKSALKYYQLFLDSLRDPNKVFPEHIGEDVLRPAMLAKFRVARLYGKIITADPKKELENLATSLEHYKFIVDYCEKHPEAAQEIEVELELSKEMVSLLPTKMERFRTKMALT
UniProt Q9NXV2: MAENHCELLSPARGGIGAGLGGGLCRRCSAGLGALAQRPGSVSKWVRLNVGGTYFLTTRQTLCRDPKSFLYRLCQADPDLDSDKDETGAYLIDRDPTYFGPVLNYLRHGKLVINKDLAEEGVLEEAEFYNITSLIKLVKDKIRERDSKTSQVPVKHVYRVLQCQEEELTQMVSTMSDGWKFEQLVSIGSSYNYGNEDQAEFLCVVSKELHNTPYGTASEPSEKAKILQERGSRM
UniProt Q9H1H9: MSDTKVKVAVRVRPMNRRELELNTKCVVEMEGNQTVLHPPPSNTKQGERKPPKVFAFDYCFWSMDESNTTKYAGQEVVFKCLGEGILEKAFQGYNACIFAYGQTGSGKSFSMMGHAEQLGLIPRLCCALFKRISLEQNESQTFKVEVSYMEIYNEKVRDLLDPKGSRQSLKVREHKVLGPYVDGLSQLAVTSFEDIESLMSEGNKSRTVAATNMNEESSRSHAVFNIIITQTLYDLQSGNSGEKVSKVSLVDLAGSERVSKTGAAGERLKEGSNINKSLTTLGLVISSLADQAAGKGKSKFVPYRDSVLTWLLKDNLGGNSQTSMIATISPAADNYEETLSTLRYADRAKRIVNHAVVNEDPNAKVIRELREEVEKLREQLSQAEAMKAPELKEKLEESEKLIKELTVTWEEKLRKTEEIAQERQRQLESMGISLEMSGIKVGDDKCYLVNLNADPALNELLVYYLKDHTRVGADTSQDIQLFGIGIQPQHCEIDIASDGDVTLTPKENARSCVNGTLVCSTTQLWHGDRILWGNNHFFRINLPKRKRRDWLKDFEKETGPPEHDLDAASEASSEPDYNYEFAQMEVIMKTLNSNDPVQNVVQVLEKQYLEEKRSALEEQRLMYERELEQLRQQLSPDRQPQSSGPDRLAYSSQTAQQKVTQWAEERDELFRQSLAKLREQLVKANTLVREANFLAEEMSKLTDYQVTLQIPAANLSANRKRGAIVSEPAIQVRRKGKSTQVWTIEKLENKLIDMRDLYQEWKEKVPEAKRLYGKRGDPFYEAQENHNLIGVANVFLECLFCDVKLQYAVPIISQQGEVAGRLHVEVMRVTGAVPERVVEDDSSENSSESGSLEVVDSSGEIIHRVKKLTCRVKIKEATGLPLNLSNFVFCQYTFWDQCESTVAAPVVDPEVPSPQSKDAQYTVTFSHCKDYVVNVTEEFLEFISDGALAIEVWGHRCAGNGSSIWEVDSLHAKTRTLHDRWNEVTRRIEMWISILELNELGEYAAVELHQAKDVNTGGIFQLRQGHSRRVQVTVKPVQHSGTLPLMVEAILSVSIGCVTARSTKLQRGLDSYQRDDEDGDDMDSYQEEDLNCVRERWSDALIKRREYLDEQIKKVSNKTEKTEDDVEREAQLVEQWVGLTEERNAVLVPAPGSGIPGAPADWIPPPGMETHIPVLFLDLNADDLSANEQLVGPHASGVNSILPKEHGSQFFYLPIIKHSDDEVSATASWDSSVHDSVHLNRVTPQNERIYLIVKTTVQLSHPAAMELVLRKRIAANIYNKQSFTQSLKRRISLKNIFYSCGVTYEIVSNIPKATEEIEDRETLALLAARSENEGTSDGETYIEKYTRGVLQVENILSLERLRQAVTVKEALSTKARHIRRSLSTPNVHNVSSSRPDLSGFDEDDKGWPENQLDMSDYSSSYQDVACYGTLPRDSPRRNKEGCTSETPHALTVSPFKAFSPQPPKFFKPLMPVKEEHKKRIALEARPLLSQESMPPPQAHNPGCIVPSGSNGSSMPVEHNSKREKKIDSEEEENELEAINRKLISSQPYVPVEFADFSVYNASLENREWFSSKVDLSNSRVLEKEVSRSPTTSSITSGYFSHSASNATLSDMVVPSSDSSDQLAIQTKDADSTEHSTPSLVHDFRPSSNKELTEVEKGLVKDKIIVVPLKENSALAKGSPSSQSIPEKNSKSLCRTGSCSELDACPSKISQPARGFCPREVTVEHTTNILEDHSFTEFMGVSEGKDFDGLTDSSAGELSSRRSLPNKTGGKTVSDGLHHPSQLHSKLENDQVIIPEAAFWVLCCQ
UniProt Q14145, whole entry, looked up: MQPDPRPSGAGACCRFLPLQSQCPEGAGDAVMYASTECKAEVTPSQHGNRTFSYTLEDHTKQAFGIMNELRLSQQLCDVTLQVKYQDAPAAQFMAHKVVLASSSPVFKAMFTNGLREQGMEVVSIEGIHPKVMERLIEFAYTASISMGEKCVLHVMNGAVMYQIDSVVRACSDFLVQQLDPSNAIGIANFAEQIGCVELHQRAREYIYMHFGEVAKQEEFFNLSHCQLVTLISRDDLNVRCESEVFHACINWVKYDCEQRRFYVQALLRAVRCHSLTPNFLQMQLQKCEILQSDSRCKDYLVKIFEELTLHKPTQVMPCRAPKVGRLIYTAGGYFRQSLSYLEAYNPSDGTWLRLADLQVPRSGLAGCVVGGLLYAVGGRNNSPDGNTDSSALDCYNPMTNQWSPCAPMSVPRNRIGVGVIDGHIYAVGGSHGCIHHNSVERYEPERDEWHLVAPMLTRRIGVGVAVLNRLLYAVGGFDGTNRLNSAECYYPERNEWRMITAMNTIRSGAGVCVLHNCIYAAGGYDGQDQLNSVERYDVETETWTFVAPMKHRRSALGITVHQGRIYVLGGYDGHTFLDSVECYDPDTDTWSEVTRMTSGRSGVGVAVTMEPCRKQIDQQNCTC
UniProt O75449: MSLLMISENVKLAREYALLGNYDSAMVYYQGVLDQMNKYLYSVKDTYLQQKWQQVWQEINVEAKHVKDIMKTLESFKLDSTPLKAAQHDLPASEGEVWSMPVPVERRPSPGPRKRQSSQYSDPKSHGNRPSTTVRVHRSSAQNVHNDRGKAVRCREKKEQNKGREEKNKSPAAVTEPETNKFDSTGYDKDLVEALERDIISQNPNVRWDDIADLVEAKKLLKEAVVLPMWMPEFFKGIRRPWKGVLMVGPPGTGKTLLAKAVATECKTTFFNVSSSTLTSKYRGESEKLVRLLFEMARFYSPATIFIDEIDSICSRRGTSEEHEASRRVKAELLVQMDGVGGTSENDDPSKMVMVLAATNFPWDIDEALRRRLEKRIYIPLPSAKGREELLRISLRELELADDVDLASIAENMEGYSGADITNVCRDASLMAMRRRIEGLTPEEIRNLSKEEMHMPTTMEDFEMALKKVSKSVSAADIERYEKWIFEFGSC
UniProt P23276: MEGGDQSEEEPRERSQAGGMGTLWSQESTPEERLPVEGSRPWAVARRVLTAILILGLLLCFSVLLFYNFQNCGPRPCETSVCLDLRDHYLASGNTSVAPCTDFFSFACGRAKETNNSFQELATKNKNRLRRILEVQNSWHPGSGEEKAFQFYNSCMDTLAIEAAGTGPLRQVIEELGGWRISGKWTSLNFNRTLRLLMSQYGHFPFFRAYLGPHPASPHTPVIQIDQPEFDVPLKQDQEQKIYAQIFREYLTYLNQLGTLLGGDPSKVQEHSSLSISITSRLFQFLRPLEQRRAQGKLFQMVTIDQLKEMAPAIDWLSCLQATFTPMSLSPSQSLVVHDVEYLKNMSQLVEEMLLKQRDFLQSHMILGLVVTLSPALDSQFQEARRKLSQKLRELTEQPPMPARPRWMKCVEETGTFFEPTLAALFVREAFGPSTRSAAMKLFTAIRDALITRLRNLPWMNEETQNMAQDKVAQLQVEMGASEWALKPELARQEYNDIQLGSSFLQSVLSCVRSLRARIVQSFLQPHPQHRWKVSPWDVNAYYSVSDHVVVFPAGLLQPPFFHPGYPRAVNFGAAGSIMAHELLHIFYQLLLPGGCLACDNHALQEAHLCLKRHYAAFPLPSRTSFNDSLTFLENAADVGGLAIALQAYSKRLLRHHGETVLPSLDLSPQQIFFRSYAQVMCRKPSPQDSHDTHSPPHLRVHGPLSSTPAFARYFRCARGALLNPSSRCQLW
UniProt O15066: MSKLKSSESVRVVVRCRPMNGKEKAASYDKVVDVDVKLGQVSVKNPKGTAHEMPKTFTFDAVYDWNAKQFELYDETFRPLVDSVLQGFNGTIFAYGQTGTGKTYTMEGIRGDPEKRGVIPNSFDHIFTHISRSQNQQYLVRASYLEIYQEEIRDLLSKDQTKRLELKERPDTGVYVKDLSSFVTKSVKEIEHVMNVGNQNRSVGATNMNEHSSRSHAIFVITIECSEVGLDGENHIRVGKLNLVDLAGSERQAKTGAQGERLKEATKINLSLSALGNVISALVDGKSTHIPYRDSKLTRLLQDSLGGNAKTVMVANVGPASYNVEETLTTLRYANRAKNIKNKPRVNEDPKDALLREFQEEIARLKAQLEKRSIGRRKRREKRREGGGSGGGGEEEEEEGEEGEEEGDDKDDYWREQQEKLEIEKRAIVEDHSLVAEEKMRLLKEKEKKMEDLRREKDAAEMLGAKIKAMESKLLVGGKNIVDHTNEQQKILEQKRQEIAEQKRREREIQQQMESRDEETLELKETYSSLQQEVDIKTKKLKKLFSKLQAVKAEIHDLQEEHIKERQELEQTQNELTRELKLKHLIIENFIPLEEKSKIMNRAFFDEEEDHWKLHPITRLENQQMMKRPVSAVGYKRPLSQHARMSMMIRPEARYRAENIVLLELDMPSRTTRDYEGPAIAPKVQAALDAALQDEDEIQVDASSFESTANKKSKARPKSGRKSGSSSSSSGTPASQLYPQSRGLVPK

Key:
Assay in all cases: log2 fold change, soluble protein after heating vs DMSO (PISA); higher = thermal stabilisation; K562 cells, 10 uM, 30 min; active = over 0.2 and 3.5 SD of the protein, either way, in both replicates (recomputed)
IRAK-1-4 Inhibitor I = compound: C1COCCN1CCN2C3=CC=CC=C3N=C2NC(=O)C4=CC(=CC=C4)[N+](=O)[O-] [IRAK-1-4 Inhibitor I]
In short: (§1)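 K562 cells at 2×10^6 cells/mL were treated for 30 min with 10 μM compound, and aliquots were heated for 3 min over 48°C-58°C before pooling. Extraction used PBS with 0.5% NP-40 at 4°C, and soluble protein was the supernatant after 21,000xg for 90 min, measured by TMTpro 16plex LC-MS/MS with channel sums equalised. Thermal stability values, relative to control samples and from duplicates, are log2 fold changes.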

ibrutinib = compound: C=CC(=O)N1CCC[C@@H](n2nc(-c3ccc(Oc4ccccc4)cc3)c3c(N)ncnc32)C1 [ibrutinib]
In short: as §1

[1] = compound: CC(=O)c1cnc2ccc(-c3cc(Cl)c(O)c(Cl)c3)nc2c1N[C@H]1CC[C@H](CN(C)C)CC1
In short: as §1

ralimetinib = compound: CC(C)(C)Cn1c(N)nc2ccc(-c3[nH]c(C(C)(C)C)nc3-c3ccc(F)cc3)nc21 [ralimetinib]
In short: as §1

[2] = compound: CC(C)(O)CC(=O)NCCn1ccc2ncnc(Nc3ccc(Oc4cccc(C(F)(F)F)c4)c(Cl)c3)c21
In short: as §1

[3] = compound: CC(C)C1=C2N=C(C=C(N2N=C1)NCC3=CC=CC=C3)NCCCCCCN
In short: as §1

[4] = compound: CC(C)C[C@@H](C=O)NC(=O)[C@H](CC(C)C)NC(=O)[C@H](CC(C)C)NC(=O)OCc1ccccc1
In short: as §1

pinometostat = compound: CC(C)N(C[C@H]1O[C@@H](n2cnc3c(N)ncnc32)[C@H](O)[C@@H]1O)[C@H]1C[C@@H](CCc2nc3cc(C(C)(C)C)ccc3[nH]2)C1 [pinometostat]
In short: as §1

[5] = compound: CC1=C(C2=C(C=C1)C(=O)C3=CC=CC=C3N2CCCN)C
In short: as §1

[6] = compound: CC1=C(C=C(C=C1)NC(=O)C2=CC(=CC=C2)C(C)(C)C#N)NC3=CC4=C(C=C3)N=CN(C4=O)C
In short: as §1

[7] = compound: CC1=C(C=C(C=C1)NC(=O)C2=CC(=CC=C2)N(C)C)NC(=O)C3=CC=C(C=C3)O
In short: as §1

[8] = compound: CC1=CC=C(C=C1)SC2=C3C=C(SC3=CN=C2)C(=O)N
In short: as §1

[9] = compound: CC1=NC(=CC=C1)C2=C(N=C(N2)C(C)(C)C)C3=CC4=NC=CN=C4C=C3
In short: as §1

Nexturastat A = compound: CCCCN(Cc1ccc(C(=O)NO)cc1)C(=O)Nc1ccccc1 [Nexturastat A]
In short: as §1

vemurafenib = compound: CCCS(=O)(=O)Nc1ccc(F)c(C(=O)c2c[nH]c3ncc(-c4ccc(Cl)cc4)cc23)c1F [vemurafenib]
In short: as §1

[10] = compound: CCCS(=O)(=O)Nc1ccc(F)c(C(=O)c2c[nH]c3ncc(Cl)cc23)c1F
In short: as §1

[11] = compound: CCCc1cc(C)[nH]c(=O)c1CNC(=O)c1cc(-c2ccnc(N3CCN(C)CC3)c2)cc2c1cnn2C(C)C
In short: as §1

givinostat = compound: CCN(CC)Cc1ccc2cc(COC(=O)Nc3ccc(C(=O)NO)cc3)ccc2c1 [givinostat]
In short: as §1

barasertib = compound: CCN(CCCOc1ccc2c(Nc3cc(CC(=O)Nc4cccc(F)c4)[nH]n3)ncnc2c1)CCOP(=O)(O)O [barasertib]
In short: as §1

[12] = compound: CC1=C(C(CC(=O)N1)C2=CC=C(C=C2)C(F)(F)F)C(=O)NC3=C(C=C4C(=C3)C=NN4)F
In short: as §1

Measured: log2 fold change

KCTD2 (UniProt Q14681)
inactive: IRAK-1-4 Inhibitor I -0.03 | ibrutinib 0.058 | [1] -0.054 | ralimetinib 0 | [2] -0.015 | [3] 0.016 | [4] 0.171 | pinometostat 0.052 | [5] -0.028 | [6] -0.421 | [7] 0.087 | [8] -0.343 | [9] -0.084 | Nexturastat A 0.072 | vemurafenib -0.164 | [10] -0.468 | [11] -0.163 | givinostat 0.078 | barasertib 0.018

KDM1A isoform 2 (UniProt O60341)
inactive: IRAK-1-4 Inhibitor I -0.014 | ibrutinib 0.014 | [1] -0.123 | ralimetinib 0.175 | [2] -0.111 | [3] -0.041 | [4] 0.031 | pinometostat 0.046 | [5] -0.05 | [6] -0.029 | [7] 0.058 | [8] 0.01 | [9] 0.002 | Nexturastat A 0.023 | vemurafenib -0.02 | [10] 0.033 | [11] 0.046 | givinostat 0.101 | barasertib 0.013

KCT2 (UniProt Q8NC54)
inactive: IRAK-1-4 Inhibitor I 0.039 | ibrutinib 0.029 | [1] -0.04 | ralimetinib -0.014 | [2] 0.004 | [3] -0.118 | [4] -0.011 | pinometostat 0.009 | [5] -0.035 | [6] 0.104 | [7] 0.007 | [8] 0.006 | [9] 0.017 | Nexturastat A -0.102 | vemurafenib -0.013 | [10] -0.011 | [11] -0.008 | givinostat -0.108 | barasertib -0.025

JUNB (UniProt P17275)
inactive: IRAK-1-4 Inhibitor I 0.159 | ibrutinib -0.102 | [1] -0.19 | ralimetinib -0.382 | [2] 0.116 | [3] 0.014 | [4] 0.161 | pinometostat 0 | [12] 0.199 | [5] -0.121 | [6] -0.099 | [7] 0.015 | [9] -0.087 | Nexturastat A 0.184 | vemurafenib 0.129 | [11] 0.138 | givinostat 0.176 | barasertib 0.03

Retrieved one by one from the entries so far, two records:
KDM1A isoform 2 (UniProt O60341)
inactive: IRAK-1-4 Inhibitor I -0.014 | ibrutinib 0.014 | [1] -0.123 | ralimetinib 0.175 | [2] -0.111 | [3] -0.041 | [4] 0.031 | pinometostat 0.046 | [5] -0.05 | [6] -0.029 | [7] 0.058 | [8] 0.01 | [9] 0.002 | Nexturastat A 0.023 | vemurafenib -0.02 | [10] 0.033 | [11] 0.046 | givinostat 0.101 | barasertib 0.013

KCTD2 (UniProt Q14681)
inactive: IRAK-1-4 Inhibitor I -0.03 | ibrutinib 0.058 | [1] -0.054 | ralimetinib 0 | [2] -0.015 | [3] 0.016 | [4] 0.171 | pinometostat 0.052 | [5] -0.028 | [6] -0.421 | [7] 0.087 | [8] -0.343 | [9] -0.084 | Nexturastat A 0.072 | vemurafenib -0.164 | [10] -0.468 | [11] -0.163 | givinostat 0.078 | barasertib 0.018

(next part)

KDELR2 (UniProt P33947)
active: [4] -0.568
inactive: IRAK-1-4 Inhibitor I -0.007 | ibrutinib 0.03 | [1] -0.14 | ralimetinib 0.127 | [2] -0.035 | [3] -0.047 | pinometostat -0.008 | [5] 0.103 | [6] 0.058 | [7] 0.099 | [8] 0.064 | [9] -0.094 | Nexturastat A -0.13 | vemurafenib -0.079 | [10] -0.054 | [11] -0.128 | givinostat -0.064 | barasertib 0.036

JMJD6 isoform 3 (UniProt Q6NYC1)
inactive: IRAK-1-4 Inhibitor I -0.02 | ibrutinib -0.011 | [1] -0.049 | ralimetinib -0.065 | [2] 0.019 | [3] -0.041 | [4] 0.004 | pinometostat -0.016 | [5] 0.102 | [6] 0.055 | [7] -0.085 | [8] 0.092 | [9] 0.024 | Nexturastat A -0.147 | vemurafenib 0.002 | [10] 0.049 | [11] 0.071 | givinostat -0.095 | barasertib -0.007

KPNA4 (UniProt O00629)
inactive: IRAK-1-4 Inhibitor I 0.008 | ibrutinib -0.016 | [1] -0.057 | ralimetinib -0.048 | [2] 0.028 | [3] -0.063 | [4] -0.02 | pinometostat -0.001 | [6] 0.016 | [7] 0.007 | [8] 0.017 | [9] 0.045 | Nexturastat A -0.008 | vemurafenib 0.031 | [10] 0.038 | [11] 0.023 | givinostat 0.006 | barasertib 0.007
active: [5] -0.347

KIFBP (UniProt Q96EK5)
inactive: IRAK-1-4 Inhibitor I -0.019 | ibrutinib 0.011 | [1] -0.033 | ralimetinib -0.02 | [2] -0.045 | [3] -0.172 | [4] 0.2 | pinometostat 0.019 | [5] 0.054 | [6] 0.019 | [7] 0.034 | [8] 0.052 | [9] 0.027 | Nexturastat A -0.107 | vemurafenib 0.067 | [10] 0.093 | [11] -0.013 | givinostat -0.004 | barasertib 0.022

KDM3B (UniProt Q7LBC6)
inactive: IRAK-1-4 Inhibitor I -0.01 | ibrutinib -0.04 | [1] -0.023 | ralimetinib -0.018 | [2] -0.089 | [3] -0.047 | [4] 0.014 | pinometostat -0.011 | [5] -0.007 | [6] 0.024 | [7] -0.041 | [8] -0.032 | [9] 0.037 | Nexturastat A -0.045 | vemurafenib 0.049 | [10] 0.031 | [11] 0.041 | givinostat -0.001 | barasertib 0.082

KRAS isoform 2 (UniProt P01116)
inactive: IRAK-1-4 Inhibitor I 0.045 | ibrutinib -0.035 | [1] -0.07 | ralimetinib 0.02 | [2] 0.101 | [3] 0.099 | pinometostat 0.014 | [5] 0.072 | [6] -0.034 | [7] 0.046 | [8] -0.023 | [9] -0.026 | Nexturastat A -0.063 | vemurafenib -0.03 | [10] -0.093 | [11] -0.073 | givinostat 0.014 | barasertib 0.003
active: [4] 0.241

KCTD5 (UniProt Q9NXV2)
inactive: IRAK-1-4 Inhibitor I -0.042 | ibrutinib -0.006 | [1] -0.006 | ralimetinib -0.015 | [2] -0.04 | [3] 0.158 | [4] 0.041 | pinometostat 0 | [12] 0.014 | [5] -0.026 | [6] -0.022 | [7] -0.04 | [8] -0.041 | [9] 0.125 | Nexturastat A 0.068 | vemurafenib -0.036 | [10] -0.012 | [11] -0.054 | givinostat -0.037 | barasertib 0.019

KIF13A (UniProt Q9H1H9)
inactive: IRAK-1-4 Inhibitor I 0.045 | ibrutinib 0.042 | [1] 0.047 | ralimetinib -0.015 | [2] 0.025 | [3] -0.069 | [4] 0.035 | pinometostat -0.008 | [5] -0.044 | [6] -0.005 | [7] 0.021 | [8] -0.005 | [9] -0.004 | Nexturastat A 0.018 | vemurafenib -0.045 | [10] 0.04 | [11] -0.005 | givinostat -0.021 | barasertib -0.009

KEAP1 (UniProt Q14145)
active: [3] -0.233
inactive: IRAK-1-4 Inhibitor I 0.008 | ibrutinib -0.085 | [1] 0.022 | ralimetinib 0.074 | [2] -0.07 | [4] 0.023 | pinometostat 0.109 | [5] 0.028 | [6] -0.024 | [7] 0.032 | [8] 0.005 | [9] -0.009 | Nexturastat A 0.038 | vemurafenib 0.054 | [10] 0.101 | [11] 0.004 | givinostat 0.034 | barasertib 0.082

KATNA1 (UniProt O75449)
inactive: IRAK-1-4 Inhibitor I -0.04 | ibrutinib -0.045 | [1] -0.1 | ralimetinib 0.037 | [2] -0.051 | [3] -0.059 | [4] 0.124 | pinometostat 0.058 | [12] -0.014 | [5] 0.054 | [6] -0.007 | [7] -0.069 | [8] -0.045 | [9] -0.023 | Nexturastat A 0.047 | vemurafenib -0.008 | [10] -0.031 | [11] 0.111 | givinostat -0.073 | barasertib 0.026

KIF3A (UniProt Q9Y496)
inactive: IRAK-1-4 Inhibitor I 0.04 | ibrutinib -0.016 | [1] 0.034 | ralimetinib 0.085 | [2] -0.151 | [3] -0.336 | [4] -0.065 | pinometostat 0.051 | [5] -0.081 | [6] -0.041 | [7] -0.013 | [8] -0.076 | [9] 0 | Nexturastat A 0.029 | vemurafenib -0.002 | [10] 0.062 | [11] 0.045 | givinostat 0.074 | barasertib -0.041

KEL (UniProt P23276)
inactive: IRAK-1-4 Inhibitor I -0.001 | ibrutinib 0.052 | [1] -0.028 | ralimetinib -0.011 | [2] 0.054 | [3] 0.025 | [4] -0.102 | pinometostat -0.02 | [5] 0.041 | [6] -0.004 | [7] -0.061 | [8] 0.117 | [9] 0.01 | Nexturastat A 0.117 | vemurafenib -0.009 | [10] -0.015 | [11] -0.014 | givinostat -0.056 | barasertib -0.029

KIF3B (UniProt O15066)
inactive: IRAK-1-4 Inhibitor I 0.06 | ibrutinib -0.029 | [1] 0.016 | ralimetinib -0.048 | [2] 0.018 | [3] -0.021 | [4] 0.068 | pinometostat 0.033 | [5] -0.008 | [6] -0.082 | [7] 0.05 | [8] -0.022 | [9] -0.042 | Nexturastat A 0.097 | vemurafenib 0.018 | [10] 0.017 | [11] -0.019 | givinostat 0.067 | barasertib -0.062
